{"source": "PubChem BioAssay AID1259323 (Peter MacCallum Cancer Centre, 2017)", "assay": "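Kinase siRNA screen linking the PAR2 receptor to the TRPV4 channel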 (primary screen)", "cell system": "human HEK293 cells stably carrying inducible TRPV4", "reagent": "siRNA pool against human genes", "treatment": "PAR2 activation; agonist identity and dose not given", "measured": "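Real-time Fura-2 calcium after PAR2 activation; early peak and later plateau each as % of mock-transfected wells on the plate, mean of two plates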", "scale": "TRPV4 plateau calcium, % of mock: higher = stronger sustained TRPV4 calcium entry than mock; PAR2 peak calcium, % of mock: higher = stronger early PAR2 calcium response than mock", "rule for the call": "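Active if plateau calcium is under 90% of mock and early peak calcium stays over 79% of mock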", "note": "This is one part, drawn at random, of 715 deposited reagents. Over the whole deposit, 91 (13%) got an active call. 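Active pools lower the sustained TRPV4 phase but spare the early PAR2 peak; PAR2 agonist and dose are not stated; pools repeat across wells.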 The record does not give: the amount of reagent, the time to read-out."}
{"target gene": "CAMK2N1", "TRPV4 plateau calcium, % of mock": 107, "PAR2 peak calcium, % of mock": 101, "outcome": "inactive"}
{"target gene": "STK26", "TRPV4 plateau calcium, % of mock": 99.4, "PAR2 peak calcium, % of mock": 101, "outcome": "inactive"}
{"target gene": "TESK2", "TRPV4 plateau calcium, % of mock": 110, "PAR2 peak calcium, % of mock": 104, "outcome": "inactive"}
{"target gene": "DGKA", "TRPV4 plateau calcium, % of mock": 105, "PAR2 peak calcium, % of mock": 103, "outcome": "inactive"}
{"target gene": "DCLK3", "TRPV4 plateau calcium, % of mock": 96.7, "PAR2 peak calcium, % of mock": 95.5, "outcome": "inactive"}
{"target gene": "OXSR1", "TRPV4 plateau calcium, % of mock": 109, "PAR2 peak calcium, % of mock": 103, "outcome": "inactive"}
{"target gene": "MUSK", "TRPV4 plateau calcium, % of mock": 102, "PAR2 peak calcium, % of mock": 102, "outcome": "inactive"}
{"target gene": "DLG4", "TRPV4 plateau calcium, % of mock": 94.6, "PAR2 peak calcium, % of mock": 90.2, "outcome": "inactive"}
{"target gene": "LIMK2", "TRPV4 plateau calcium, % of mock": 121, "PAR2 peak calcium, % of mock": 114, "outcome": "inactive"}
{"target gene": "NME6", "TRPV4 plateau calcium, % of mock": 87.4, "PAR2 peak calcium, % of mock": 95.8, "outcome": "active"}
{"target gene": "SCYL1", "TRPV4 plateau calcium, % of mock": 101, "PAR2 peak calcium, % of mock": 99.3, "outcome": "inactive"}
{"target gene": "SPEG", "TRPV4 plateau calcium, % of mock": 99.8, "PAR2 peak calcium, % of mock": 100, "outcome": "inactive"}
{"target gene": "GRK2", "TRPV4 plateau calcium, % of mock": 97.4, "PAR2 peak calcium, % of mock": 86.3, "outcome": "inactive"}
{"target gene": "SRPK2", "TRPV4 plateau calcium, % of mock": 95.6, "PAR2 peak calcium, % of mock": 98.2, "outcome": "inactive"}

The list goes on; the last 3 above are carried over.
{"target gene": "SPEG", "TRPV4 plateau calcium, % of mock": 99.8, "PAR2 peak calcium, % of mock": 100, "outcome": "inactive"}
{"target gene": "GRK2", "TRPV4 plateau calcium, % of mock": 97.4, "PAR2 peak calcium, % of mock": 86.3, "outcome": "inactive"}
{"target gene": "SRPK2", "TRPV4 plateau calcium, % of mock": 95.6, "PAR2 peak calcium, % of mock": 98.2, "outcome": "inactive"}
{"target gene": "MAP3K21", "TRPV4 plateau calcium, % of mock": 107, "PAR2 peak calcium, % of mock": 103, "outcome": "inactive"}
{"target gene": "TTBK2", "TRPV4 plateau calcium, % of mock": 107, "PAR2 peak calcium, % of mock": 102, "outcome": "inactive"}
{"target gene": "CAMK2G", "TRPV4 plateau calcium, % of mock": 90.3, "PAR2 peak calcium, % of mock": 86.1, "outcome": "inactive"}
{"target gene": "TAF1", "TRPV4 plateau calcium, % of mock": 96.8, "PAR2 peak calcium, % of mock": 95.5, "outcome": "inactive"}
{"target gene": "PRKAR1B", "TRPV4 plateau calcium, % of mock": 104, "PAR2 peak calcium, % of mock": 105, "outcome": "inactive"}
{"target gene": "PFKFB4", "TRPV4 plateau calcium, % of mock": 108, "PAR2 peak calcium, % of mock": 104, "outcome": "inactive"}
{"target gene": "MLKL", "TRPV4 plateau calcium, % of mock": 87.3, "PAR2 peak calcium, % of mock": 98, "outcome": "active"}
{"target gene": "PIP5K1A", "TRPV4 plateau calcium, % of mock": 111, "PAR2 peak calcium, % of mock": 108, "outcome": "inactive"}
{"target gene": "KHK", "TRPV4 plateau calcium, % of mock": 103, "PAR2 peak calcium, % of mock": 101, "outcome": "inactive"}
{"target gene": "PFKFB2", "TRPV4 plateau calcium, % of mock": 102, "PAR2 peak calcium, % of mock": 99.3, "outcome": "inactive"}
{"target gene": "MAP2K4", "TRPV4 plateau calcium, % of mock": 97.4, "PAR2 peak calcium, % of mock": 96.7, "outcome": "inactive"}
{"target gene": "EPHB4", "TRPV4 plateau calcium, % of mock": 103, "PAR2 peak calcium, % of mock": 102, "outcome": "inactive"}
{"target gene": "CSNK2A1", "TRPV4 plateau calcium, % of mock": 101, "PAR2 peak calcium, % of mock": 97.6, "outcome": "inactive"}
{"target gene": "EFNB3", "TRPV4 plateau calcium, % of mock": 82.7, "PAR2 peak calcium, % of mock": 90.4, "outcome": "active"}
{"target gene": "PI4KA", "TRPV4 plateau calcium, % of mock": 96.3, "PAR2 peak calcium, % of mock": 93.3, "outcome": "inactive"}
{"target gene": "FXN", "TRPV4 plateau calcium, % of mock": 106, "PAR2 peak calcium, % of mock": 101, "outcome": "inactive"}
{"target gene": "GALK2", "TRPV4 plateau calcium, % of mock": 99, "PAR2 peak calcium, % of mock": 100, "outcome": "inactive"}
{"target gene": "PIP5K1C", "TRPV4 plateau calcium, % of mock": 98.9, "PAR2 peak calcium, % of mock": 100, "outcome": "inactive"}
{"target gene": "PAPSS2", "TRPV4 plateau calcium, % of mock": 91.9, "PAR2 peak calcium, % of mock": 87.6, "outcome": "inactive"}
{"target gene": "LIMK1", "TRPV4 plateau calcium, % of mock": 94.1, "PAR2 peak calcium, % of mock": 92.3, "outcome": "inactive"}
{"target gene": "TNNI3K", "TRPV4 plateau calcium, % of mock": 92.9, "PAR2 peak calcium, % of mock": 92, "outcome": "inactive"}
{"target gene": "PSKH2", "TRPV4 plateau calcium, % of mock": 103, "PAR2 peak calcium, % of mock": 101, "outcome": "inactive"}
{"target gene": "GRK6", "TRPV4 plateau calcium, % of mock": 106, "PAR2 peak calcium, % of mock": 89, "outcome": "inactive"}
{"target gene": "ACVRL1", "TRPV4 plateau calcium, % of mock": 85, "PAR2 peak calcium, % of mock": 96, "outcome": "active"}
{"target gene": "LATS2", "TRPV4 plateau calcium, % of mock": 97.8, "PAR2 peak calcium, % of mock": 93.1, "outcome": "inactive"}
{"target gene": "PAK6", "TRPV4 plateau calcium, % of mock": 111, "PAR2 peak calcium, % of mock": 105, "outcome": "inactive"}
